# Experimental data: PubChem BioAssay AID1671190 (National Center for Advancing Translational Sciences (NCATS), 2021)
# Sequences of proteins named here, by UniProt entry; tags and fusion partners are left off. A change or cut given only in a name is not applied to a line headed by its entry.
# UniProt P18054: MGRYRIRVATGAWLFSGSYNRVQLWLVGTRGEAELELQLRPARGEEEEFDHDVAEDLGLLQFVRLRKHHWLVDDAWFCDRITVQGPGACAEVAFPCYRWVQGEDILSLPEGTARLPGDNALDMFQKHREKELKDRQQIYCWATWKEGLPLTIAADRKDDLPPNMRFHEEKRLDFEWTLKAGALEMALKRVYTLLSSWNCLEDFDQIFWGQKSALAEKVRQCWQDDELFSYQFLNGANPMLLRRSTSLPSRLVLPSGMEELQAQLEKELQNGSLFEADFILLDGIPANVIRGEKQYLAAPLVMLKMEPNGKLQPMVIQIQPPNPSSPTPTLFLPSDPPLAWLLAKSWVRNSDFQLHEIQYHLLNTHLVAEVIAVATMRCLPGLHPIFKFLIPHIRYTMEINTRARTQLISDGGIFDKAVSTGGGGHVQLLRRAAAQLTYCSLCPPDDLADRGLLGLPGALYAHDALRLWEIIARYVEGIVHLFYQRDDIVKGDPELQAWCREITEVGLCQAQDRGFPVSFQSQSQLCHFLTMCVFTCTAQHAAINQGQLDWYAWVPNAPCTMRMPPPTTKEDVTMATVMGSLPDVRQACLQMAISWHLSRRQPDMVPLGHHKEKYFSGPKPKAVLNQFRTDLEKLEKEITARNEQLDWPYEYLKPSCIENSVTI
# Hit rate of the full screen: of about 580,000 compounds, about 6,100 (1.1%) were called active. The inconclusive results got no clear call from the source; some entries with a clear call stand among them for comparison. Calls follow the shape of the dose curve; as a rule, active = well fitted inhibition curve with a large enough effect; inconclusive = small, poorly fitted or top-dose-only effect, or another doubt; inactive = no such curve, though single readings can be large or run the other way. Where the call is inconclusive, the potency comes from a doubtful curve fit.
# Target: Polyunsaturated fatty acid lipoxygenase ALOX12 (Homo sapiens) (UniProt P18054)
# Test: Primary qHTS assay for inhibitors of human arachidonate 12S-lipoxygenase (ALOX12): Round 2
# Conditions: purified 12hLO, xylenol orange hydroperoxide absorbance; activity change, negative = inhibition: at 108 µM (top of the series) unless noted
# Summary of the method: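 Purified human 12hLO (150 nM final) in 25 mM Hepes, 0.01% Triton X-100, pH 7.0 was preincubated 15 min at room temperature with compound. Then 40 uM arachidonic acid was added, 30 min. Hydroperoxide was read by Fe-XO absorbance ratio 573/405 nm.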
# % is scaled to controls: 0 for no effect and ±100 for the full control effect; potency is read from the fitted curve at half-maximal effect.
SMILES,Potency,"activity change, negative = inhibition"
c1ccc(-c2nnc(Cn3c4ccccc4c4nc5ccccc5nc43)o2)cc1,"inconclusive: 0.199 µM [inhibitor, full curve, poor fit]",–
CCn1cc(C(=O)N2CCc3ccccc32)c(=O)c2cc(S(=O)(=O)N3CC(C)CC(C)C3)ccc21 (centres undefined),inactive,–
Cc1ccc(C(=O)N2CC(Oc3ccc4c(c3)OCO4)C2)cc1,"inconclusive: 112 µM [inhibitor, partial curve, poor fit]",–
Cc1ccc(C(=O)NC(Nc2ccc(C)c(C)c2)C(Cl)(Cl)Cl)cc1 (centres undefined),inactive,–
CN1CCN(c2ccc3ncc(Nc4cccc(C(F)(F)F)c4)n3n2)CC1,inactive,–
O=C(Nc1cccc2cccnc12)C(c1ccccc1)c1ccccc1,"inconclusive: 2.82 µM [inhibitor, full curve, poor fit]",–
CCC(CO)Nc1ncc2cc3ccccc3nc2c1C#N (centres undefined),"inconclusive: 39.8 µM [inhibitor, partial curve]",–
CN(CC(=O)Nc1ccc(F)cc1)C(=O)COC(=O)C1CCN(c2ccc(C(F)(F)F)cn2)CC1,"inconclusive: 89.1 µM [inhibitor, partial curve, poor fit]",–
C/C(=N\NC(N)=S)c1ccc(Cl)s1,"inconclusive: 39.8 µM [inhibitor, partial curve]",–
COC(=O)C(C(=O)OC)c1cc2c(cc1CNS(=O)(=O)c1ccc(C)cc1)OCO2,"inconclusive: 63.1 µM [inhibitor, single point]",–
O=C(Nc1ccc2nc(SCC(=O)N3CCc4ccccc43)sc2c1)c1cccc(F)c1,inactive,–
COC(=O)c1c(C)[nH]c(C(=O)OCC2CC2(Cl)Cl)c1C (centres undefined),"inconclusive: 0.891 µM [inhibitor, full curve, poor fit]",–
O=C1C=C(Nc2ccc(O)cc2)CC(c2ccco2)C1 (centres undefined),inactive,–
Cc1ccc(C(=O)N2CCc3cc(CNC(=O)c4ccc(Br)cc4)ccc32)cc1,"inconclusive: 100 µM [inhibitor, partial curve, poor fit]",–
Cc1ccc(C(=O)Nc2ccccc2)cc1S(=O)(=O)Nc1ccc(Br)cc1,"inconclusive: 39.8 µM [inhibitor, partial curve]",–
Clc1cc(Cl)cc(CNc2ncncc2-c2ccc3c(c2)OCO3)c1,"inconclusive: 0.968 µM [inhibitor, full curve]",–
COC(=O)c1c(-c2ccc(OC)cc2)sc2cc(OC)c(OC)cc12,inactive,–
COc1cc(C(=S)N2CCOCC2)cc(OC)c1OS(=O)(=O)c1ccc(Cl)cc1,"inconclusive: 50.1 µM [inhibitor, partial curve, poor fit]",–
COc1ccc(C(C2C(=O)CC(C)(C)CC2=O)C2C(=O)CC(C)(C)CC2=O)cc1,"inconclusive: 35.5 µM [inhibitor, single point]",–
CCc1ccc(NC(=S)NC2CC3CCCC(C2)N3Cc2cccs2)cc1 (centres undefined),"inconclusive: 35.5 µM [inhibitor, single point]",–
CN1[C@@H](CCC(=O)N2CC[C@@H](O)C2)CNC(=O)[C@@H]2[C@H]1CCN2C1CCOCC1,inactive,–
CC(NC(=O)c1ccc(C(C)(C)C)cc1)C(=O)N1CCC2(CC1)NCCc1[nH]cnc12 (centres undefined),inactive,–
Brc1ccc(C2=Nn3c(nnc3-c3ccc4c(c3)OCO4)SC2)cc1,"inconclusive: 31.6 µM [inhibitor, partial curve, poor fit]",–

SMILES,Potency,"activity change, negative = inhibition"
CN(C)C[C@H]1O[C@@H](CO)[C@@H](O)[C@H]1N1CCN(C)CC1,"inconclusive: 10 µM [inhibitor, full curve, poor fit]",–
Cc1ccc(F)cc1S(=O)(=O)N(C)CC1CCOCC1,inactive,–
CC1(C)CC(=O)C2=C(C1)Nc1[nH]n(-c3ccccc3)c(=O)c1C2c1ccc(Cl)cc1 (centres undefined),"inconclusive: 50.1 µM [inhibitor, partial curve, poor fit]",–
O=C1CC(=O)N(CCc2ccccc2)C(=O)N1CCc1ccccc1,–,inconclusive: -31.5% [inhibitor]
CC1CCN(CCOCCOc2ccccc2Br)CC1,"inconclusive: 3.55 µM [inhibitor, full curve, poor fit]",–
C=CCNC(=O)c1onc(CSc2cccc(Cl)c2)c1C(=O)O,"inconclusive: 31.6 µM [inhibitor, single point]",–
CCOc1ccc(/C=C2/C(=O)N(c3ccc(OC)cc3)C(=S)N2CC(=O)OC)cc1OCC,inactive,–
CC(O)CNCCCOc1cccc(Oc2ccccc2)c1 (centres undefined),"inconclusive: 0.891 µM [inhibitor, full curve, poor fit]",–
COc1ccccc1/C=C/CN1CCC(n2nccc2NC(=O)C2CC2)CC1,active: 28.2 µM,–
Cc1ccc(C(=O)NC(c2nnc(SCC(=O)c3ccccc3)n2C)C(C)C)cc1 (centres undefined),"inconclusive: 89.1 µM [inhibitor, single point]",–
Cc1cccc(Cl)c1NC(=S)NN,"inconclusive: 35.5 µM [inhibitor, partial curve, poor fit]",–
Cc1sc(NC(=O)c2cccc(N3C(=O)CCC3=O)c2)nc1-c1ccccc1,"inconclusive: 44.7 µM [inhibitor, partial curve, poor fit]",–
CCn1c(SCC(=O)Nc2cc(OC)ccc2OC)nc2c(c1=O)SCC2,inactive,–
C=CCn1cc(-c2c(-c3ccccc3)ncn2CCCC2CCOC2)cn1 (centres undefined),inactive,–
Cc1noc2c(-c3cccnc3N3CC(O)C3)cc(-c3ccccc3)nc12,inactive,–
Cc1ccc(C2CCN(C(=O)Nc3ccc(Cl)cc3)C2)cc1 (centres undefined),"inconclusive: 79.4 µM [inhibitor, partial curve, poor fit]",–
Oc1ccc2ccc3cccc[n+]3c2c1,"inconclusive: 1.58 µM [inhibitor, full curve]",–
COc1cccc(-c2nnc(SCC(=O)Nc3cc(C)on3)n2C)c1,"inconclusive: 50.1 µM [inhibitor, partial curve, poor fit]",–
Cc1cc(=O)[nH]c2nnc(SCc3c(F)cccc3Cl)n12,"inconclusive: 141 µM [inhibitor, partial curve, poor fit]",–
CC(C)(C)S(=O)(=O)N1Cc2ccc(CO)cc2[C@@H]1CCO,"inconclusive: 20 µM [inhibitor, full curve]",–
Cc1cc(C)n(NC(=S)NC2CCCC2)c(=O)c1C#N,"inconclusive: 14.1 µM [inhibitor, full curve, poor fit]",–
Nc1nc(=S)ss1,"inconclusive: 3.55 µM [inhibitor, full curve, poor fit]",–
CC(OC(=O)c1ccc2c(c1)NC(=O)CS2)C(=O)NCc1ccccc1 (centres undefined),"inconclusive: 0.501 µM [inhibitor, full curve, poor fit]",–

SMILES,Potency,"activity change, negative = inhibition"
O=C(Oc1ccc2c(=O)c(-c3ccc(Cl)cc3)coc2c1)C1CC1,inactive,–
O=C(NCCOc1ccccc1)[C@@H]1C[C@@H](c2ccc(F)cc2)N([S+](=O)([O-])c2ccccc2)C1,"inconclusive: 8.91 µM [inhibitor, full curve]",–
COc1cccc(C(C)(O)c2nc(-c3cccc(NC(C)=O)c3)cs2)c1 (centres undefined),inactive,–
CC[C@H](C)[C@H](NC(N)=O)C(=O)Nc1ccccc1F,"inconclusive: 44.7 µM [inhibitor, partial curve]",–
CCOc1ccc2c(c1)sc1nc(=O)n(-c3ccc(Cl)c(Cl)c3)c(=O)n12,inactive,–
CCCn1c(C)c(CC(=O)NC(C)Cn2cccn2)c2c1CC(C)(C)CC2=O (centres undefined),inactive,–
CCC1(C)Cc2c(sc3nnn(CC(=O)Nc4ccc(Cl)cc4)c(=O)c23)CO1 (centres undefined),inactive,–
Cc1ccc(/C=C2\CCOC2=O)cc1,inactive,–
CC(CCN1CCC(C(O)(c2ccccc2)c2ccccc2)CC1)Oc1cccc(Cl)c1 (centres undefined),"inconclusive: 39.8 µM [inhibitor, partial curve, poor fit]",–
Cc1ccc(S(=O)(=O)Cc2noc(CCC(=O)NCc3ccc(Cl)cc3)n2)cc1,"inconclusive: 31.6 µM [inhibitor, partial curve, poor fit]",–
CCOc1ccc(CN(C)CC(=O)c2c(N)n(Cc3ccccc3)c(=O)n(CC)c2=O)cc1OC,inactive,–
COc1ccc(N(CC(C)C)S(=O)(=O)c2nnc(NC(=O)c3cccs3)s2)cc1,"inconclusive: 79.4 µM [inhibitor, partial curve, poor fit]",–
CC(C)NCC(O)(c1ccc(Cl)cc1)c1ccc(Cl)cc1,inactive,–
CCOc1cc(NC(=S)NCCCN(C)C)c(OCC)cc1NC(=O)c1cccs1,"inconclusive: 15.8 µM [inhibitor, full curve, poor fit]",–
COc1cccc(NC(=S)N2CCN(c3ccccn3)CC2)c1,"inconclusive: 7.08 µM [inhibitor, full curve, poor fit]",–
Cc1nn2c(c1-c1ccccc1OCc1ccccc1)N(C(=O)C1CCC1)CCC2,inactive,–
Cc1ccc(Nc2ncnc(N)c2[N+](=O)[O-])cc1Cl,inactive,–
O=C(NCCCN1CCCC1)C1CCN(C(=O)c2cc3sccc3n2Cc2ccc(F)cc2)CC1,inactive,–
COc1ccc(/C=C/C(=O)O)cc1S(=O)(=O)N1CCC(C)CC1,"inconclusive: 100 µM [inhibitor, single point]",–
CCCCCCCCCCCCCCC[C@H](O)[C@@H](N)CO,"inconclusive: 7.21 µM [inhibitor, partial curve, poor fit]",–
Cc1cc2cc3c(=O)[nH]c(=O)nc-3n(CC(O)C(O)C(O)CO)c2cc1C (centres undefined),inactive,–
CC1CCN(S(=O)(=O)c2ccc3c(c2)CC(C)N3C(=O)C2CCC2)CC1 (centres undefined),"inconclusive: 79.4 µM [inhibitor, partial curve, poor fit]",–
CC(C)C[C@@H](COCc1cccc(C(F)(F)F)c1)N1CCN(C(=O)c2ccc(C(F)(F)F)cc2)CCC1=O,"inconclusive: 50.1 µM [inhibitor, partial curve, poor fit]",–

# 4 records drawn at random from those above, as already listed:
SMILES,Potency,"activity change, negative = inhibition"
Cc1ccc(S(=O)(=O)Cc2noc(CCC(=O)NCc3ccc(Cl)cc3)n2)cc1,"inconclusive: 31.6 µM [inhibitor, partial curve, poor fit]",–
CC(OC(=O)c1ccc2c(c1)NC(=O)CS2)C(=O)NCc1ccccc1 (centres undefined),"inconclusive: 0.501 µM [inhibitor, full curve, poor fit]",–
Cc1ccc(C(=O)Nc2ccccc2)cc1S(=O)(=O)Nc1ccc(Br)cc1,"inconclusive: 39.8 µM [inhibitor, partial curve]",–
c1ccc(-c2nnc(Cn3c4ccccc4c4nc5ccccc5nc43)o2)cc1,"inconclusive: 0.199 µM [inhibitor, full curve, poor fit]",–
